According to US20230280333A1, “FOREIGN SUBSTANCE INTRODUCTION CONSTRUCT AND USE THEREOF” (TOAGOSEI CO., LTD., priority 2022, published 2023):
Some results were stated once for a whole list of compounds, not compound by compound. Some ranges recur; such a range may be that of the whole group of compounds.

System: HeLa cells
Assay: Evaluation of the cell membrane permeability by flow cytometry
Assay type: cell-based, human
Details: 10 μM, 20 hours
Description: The cell membrane permeability of peptides 1 to 4 was analyzed using HeLa cells (an established cell line derived from human cervical cancer cells) as the eukaryotic cells.
HeLa cells were cultured on DMEM (Dulbecco's modified Eagle's medium (Cat. No. 043-30085, from FUJIFILM Wako Pure Chemical Corporation)) containing 10% FBS (fetal bovine serum), which is a general culture medium.
The HeLa cells attached to the culture plate were washed with PBS, a 0.25% trypsin/EDTA solution was then added, and incubation was carried out for 3 minutes at 37° C. After this incubation, the aforementioned DMEM containing 10% FBS was added and the trypsin was inactivated, and the cells were then sedimented by carrying out centrifugal separation for 5 minutes at 150×g. […]
The cell permeability of sample 1 was analyzed using the resulting cells (cell pellet) and a flow cytometer. […]
Gating was performed using this flow cytometer based on forward scatter (FSC) and side scatter (SSC); the gating was set for the cell population that was the target of the analysis; and the fluorescent intensity was measured for the cell population within this gating. […] The FL2 fluorescence detector (optimal detection wavelength around 543 nm) on the indicated flow cytometer, which could detect the fluorescence wavelength of FAM, was used to measure the fluorescent intensity. […]

Substance: Ac-KKRTLRKSNRKKRWPC-FAM (N-acetyl; C-terminal FAM) [Example 1, foreign substance introduction construct provided with peptide 1, FAM bonded to the C-terminal side]
- MFI compared between examples, in words: higher in Examples 1 to 4 than in Example 5
